Out of some 400,000 compounds screened, about 13,000 (3.2%) were called active. This list was built around the results that the source calls inconclusive (neither active nor inactive); the mix of calls is not that of the screen. Calls follow the shape of the dose curve; as a rule, active = well fitted cell-killing curve with a large enough effect; inconclusive = small, poorly fitted or top-dose-only effect, or effect the other way; inactive = flat fitted curve, though single readings scatter. Where the call is inconclusive, the potency comes from a doubtful curve fit.
Test: qHTS assay for MDR1-selective chemotherapeutics: Primary screen using the drug-selected MDR subline cells KB-V1; also: nearly all actives have a fitted effect of over 60% in size
Settings: KB-V1 MDR cells viability, CellTiter-Glo, 72 h; activity change, negative = cytotoxicity: at 46.1 µM (top of the series)
Method in brief: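 KB-V1 cells (P-gp-expressing MDR subline of KB-3-1) in phenol-red-free DMEM with 10% FBS were exposed to library compounds over a concentration series for 72 h at 37 degrees C. Viability read by CellTiter-Glo luminescence; concentration-effect curves fitted after normalization.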
% is scaled to controls: 0 for no effect and ±100 for the full control effect; potency is read from the fitted curve at half-maximal effect.

SMILES	activity change, negative = cytotoxicity	Potency
COc1ccc(-c2cc(C(=O)NCCc3ccccc3)no2)cc1OC	inconclusive: -69%	
COc1ccccc1N1CCN(/N=C/c2cc(OC)c(OC)c(OC)c2)CC1		active: 14.6 µM
Cc1cccn2c(CN3CCNC(=O)CC3)c(C(=O)N(C)CCc3ccccc3)nc12	inactive: -5.85%	
O=C(O)c1cccnc1SC1CC(=O)N(c2ccccc2)C1=O (stereo unspecified)		inconclusive: 29.1 µM [rising, single point]
COC(=O)C1CCN(Cc2cn(-c3ccccc3)nc2-c2ccc3c(c2)OCO3)CC1		inconclusive: 11.6 µM [cytotoxic, partial curve, poor fit]
CCn1c(SCC(=O)NC(C)(C)C)nc(O)cc1=O		inconclusive: 4.61 µM [rising, full curve, poor fit]
COc1ccc(NC(=O)c2ccco2)c([N+](=O)[O-])c1		inconclusive: 23.1 µM [cytotoxic, partial curve, poor fit]
Cc1ccc(Cc2c(C3CCCCC3)nc3ccc(C)cn23)cc1	inactive: -28.4%	
Cc1cccc(C(=O)NC2(C(F)(F)F)N=C(c3ccccc3)N(Cc3ccccc3)C2=O)c1 (stereo unspecified)	inactive: -11.7%	
COc1ccc(CNC(=O)CSCc2c(F)cccc2Cl)cc1		inconclusive: 23.1 µM [rising, single point]
Cc1ccc(C)c(NC(=O)CSc2ncnc3nc[nH]c23)c1	inactive: -7.77%	
O=C(NC(=S)Nc1ccc(CN2CCOCC2)cc1)c1cccc([N+](=O)[O-])c1	inactive: -0.448%	
Cc1ccc(CNC(=O)c2ccc3c(=O)c(O)c(-c4ccc(C)cc4)[nH]c3c2)cc1		inconclusive: 32.6 µM [cytotoxic, single point]
O=C(CSc1nc2ccccc2n1CC(=O)Nc1ccc(F)cc1F)Nc1ccc(F)cc1	inactive: -22.9%	
CCn1c(C)cs/c1=N\C(=S)Nc1ccccc1C	inactive: -30.2%	
COc1cc(C(=O)NCc2nnc(SCC(=O)NCc3ccco3)o2)cc(OC)c1OC		inconclusive: 14.6 µM [rising, partial curve]
O=P(Cc1ccccc1)(Cc1ccccc1)c1ccccc1		active: 18.4 µM
O=[N+]([O-])c1ccc(Cl)c(CN2CCCCCC2)c1	inactive: -0.541%	
C=CCOc1nc2c(c(=O)n(C)c(=O)n2C)n1Cc1ccccc1Cl		active: 7.31 µM
O=C(OCc1c(-c2ccccc2)ncc2ccccc12)c1cccs1		inconclusive: 16.4 µM [cytotoxic, single point]
O=C(Nc1ccccc1)c1ccc2nc(-c3ccco3)c(-c3ccco3)nc2c1		inconclusive: 29.1 µM [cytotoxic, single point]
Cc1ccc2nc(Cl)c(C3CC(c4cccs4)=NN3C(=O)CCCC(=O)O)cc2c1 (stereo unspecified)		inconclusive: 0.0073 µM [cytotoxic, full curve, poor fit]
Nc1cc2c(cc1Br)-c1ccccc1C2=NO		inconclusive: 16.4 µM [cytotoxic, single point]
COCCCN1CCc2nc(SCC(=O)Nc3ccc(C)c(Cl)c3)[nH]c(=O)c2C1	inactive: -20%	

SMILES	activity change, negative = cytotoxicity	Potency
CCOC(=O)CC(NC(=O)c1cc2cccc(OC)c2oc1=O)c1ccc(OC)cc1 (stereo unspecified)	inactive: 5.17%	
Cc1c(Cl)c([N+](=O)[O-])nn1CCCC(=O)Nc1cccc(Cl)c1		active: 18.4 µM
Cc1cccc(CCNC(=O)CN(C)S(=O)(=O)c2cnc[nH]2)c1		inconclusive: 29.1 µM [rising, single point]
Cc1cccc(C)c1NC(=O)Nc1nnc([C@@H]2C[C@H](O)[C@@H](CO)O2)s1	inconclusive: -37.1%	
CCN1CCOC(=O)C1CC(=O)Nc1ccccc1C(F)(F)F (stereo unspecified)		inconclusive: 16.4 µM [rising, single point]
COc1ccc(OC)c(Nc2nc3ccc(C)cc3n3cnnc23)c1	inactive: -6.84%	
C=CCN(c1ccc(OC)cc1)S(=O)(=O)c1ccc(Cl)c(C(=O)OCC(=O)c2c(N)n(C)c(=O)n(C)c2=O)c1		active: 16.4 µM
CCOC(=O)/C(C#N)=C\c1ccc(N2CCN(C/C=C/c3ccccc3)CC2)cc1		inconclusive: 18.4 µM [cytotoxic, partial curve, poor fit]
Cc1[nH]n(-c2nc(-c3ccc(Cl)cc3)cs2)c(=O)c1N=Nc1ccc(O)cc1		active: 14.6 µM
CCOc1ccccc1N1CCN(C(=O)c2ccncc2)CC1	inactive: -22.8%	
O=C(CN1C(=O)c2cccc([N+](=O)[O-])c2C1=O)OCC(=O)N1CCCCC1	inactive: 6.17%	
CCN(CC)CCN(CC(=O)N(C1CCCCC1)C1CCCCC1)C(=O)c1cccnc1		inconclusive: 23.1 µM [rising, single point]
COc1ccc(C(=O)Nc2cccc3c2CCCC3)c(OC)c1		inconclusive: 2.91 µM [cytotoxic, partial curve, poor fit]
CC1CC(C)CN(C(=S)Nc2ccc3nc4n(c(=O)c3c2)CCCCC4)C1 (stereo unspecified)		inconclusive: 7.31 µM [cytotoxic, partial curve]
COc1cc(Br)cc(/C=N/NC(=O)Cc2ccccc2)c1O	inactive: -25.9%	
Cc1onc(-c2ccccc2Cl)c1C(=O)N1CCc2ccccc21		active: 23.1 µM
COc1ccc(NC(=O)CNS(=O)(=O)c2ccc(Cl)cc2)cc1OC		inconclusive: 16.4 µM [cytotoxic, single point]
COc1ccc(S(=O)(=O)N(CC(=O)Nc2ccccc2C(=O)N2CCOCC2)c2ccc(F)cc2)cc1		active: 16.4 µM
CCOC(=O)c1cnc(-n2nc(C)cc2C)nc1NCc1ccccc1		active: 0.92 µM
CCOc1cc(CN2CCCC(CNC(=O)c3ccc(F)cc3)C2)ccc1OC (stereo unspecified)		inconclusive: 8.2 µM [cytotoxic, partial curve, poor fit]
O=C1c2ccccc2S(=O)(=O)N1CC1CC(c2ccccc2)=NO1 (stereo unspecified)		inconclusive: 23.1 µM [rising, single point]
Cc1cc(NC(=O)C(Cl)c2ccccc2)no1 (stereo unspecified)		inconclusive: 32.6 µM [cytotoxic, single point]
CN(Cc1ccccc1)C(=O)CCS(=O)(=O)c1ccc2c(c1)NC(=O)CS2		inconclusive: 23.1 µM [cytotoxic, single point]
CC1CCN(S(=O)(=O)c2cc(C(=O)Nc3ccccn3)ccc2Br)CC1		inconclusive: 6.51 µM [cytotoxic, partial curve]

One compound at a time (already shown):
`COc1ccc(NC(=O)CNS(=O)(=O)c2ccc(Cl)cc2)cc1OC` in the list: Potency: inconclusive: 16.4 µM [cytotoxic, single point]
`CCOC(=O)CC(NC(=O)c1cc2cccc(OC)c2oc1=O)c1ccc(OC)cc1` (stereo unspecified) in the list: activity change, negative = cytotoxicity: inactive: 5.17%

(list continues)

SMILES	activity change, negative = cytotoxicity	Potency
COc1cccc2sc3cc(NCc4ccc5c(c4)OCO5)ccc3c(=O)c12		inconclusive: 20.6 µM [rising, partial curve, poor fit]
CC(C)(C)OC(=O)N1CCC[C@H]1C(=O)N/N=C/c1cccc2cccnc12		inconclusive: 29.1 µM [cytotoxic, single point]
N=c1n(Cc2ccccc2)c2ccccc2n1CC(O)c1ccccc1 (stereo unspecified)		inconclusive: 18.4 µM [cytotoxic, single point]
COc1ccc2oc(=O)c(C(=O)NCCc3c(C)[nH]c4c(C)cccc34)cc2c1		inconclusive: 29.1 µM [cytotoxic, single point]
Cc1ccc(Sc2c(C=O)c3ccccc3n2C)cc1		inconclusive: 29.1 µM [cytotoxic, single point]
Cc1cc(C)c(S(=O)(=O)NCc2cccs2)cc1C		inconclusive: 11.6 µM [cytotoxic, partial curve]
CC(Oc1ccccc1)c1nnc(SCC(=O)NC2CC2)n1C (stereo unspecified)	inactive: 1.65%	
Cc1ccccc1C(=O)Nc1ccc(NC(=O)c2cccs2)cc1		inconclusive: 29.1 µM [rising, single point]
CCn1c2ccccc2c2cc(NC(=O)COc3cc(C)c(Cl)c(C)c3)ccc21		inconclusive: 29.1 µM [rising, single point]
O=C(NNc1nc2ccccc2nc1C(F)(F)F)c1ccccc1		inconclusive: 20.6 µM [cytotoxic, single point]
Cc1cc(C)n(C(C)CC(=O)Nc2ccc3c(c2)OCCO3)n1 (stereo unspecified)		inconclusive: 3.26 µM [rising, partial curve, poor fit]
O=C(Cn1nnc(-c2ccccc2Cl)n1)Nc1cccc(S(=O)(=O)N2CCCC2)c1		inconclusive: 29.1 µM [cytotoxic, single point]
CC(C)CCn1cnc2c(oc3nc4c(cc32)CCCC4)c1=O	inactive: -7.31%	
Cc1ccc(S(=O)(=O)NC2CC3CCC2C3)cc1 (stereo unspecified)		inconclusive: 1.64 µM [rising, full curve]
C=CCOc1ccc(C2/C(=C(\O)c3ccc4c(c3)OCCO4)C(=O)C(=O)N2CCCN2CCOCC2)cc1 (stereo unspecified)		inconclusive: 23.1 µM [rising, single point]
O=C(NC(=S)Nc1cccc(O)c1)C12CC3CC(CC(C3)C1)C2		inconclusive: 2.91 µM [rising, partial curve, poor fit]
COc1ccc(C2=NOC(C(=O)NCc3ccc(F)cc3)C2)cc1OC (stereo unspecified)		active: 0.517 µM
CCN1c2ccccc2NC2N=C(OC)C(c3ccccc3)C21 (stereo unspecified)		inconclusive: 29.1 µM [cytotoxic, partial curve, poor fit]
COc1cc(Nc2nc(-c3ccccc3)c3cc(C)ccc3n2)cc(OC)c1OC		active: 20.6 µM
Cc1cc(C(F)(F)F)nn1Cc1n[nH]c(=S)n1-c1ccc(Cl)cc1		inconclusive: 18.4 µM [cytotoxic, single point]
COc1cc2oc(-c3ccc(O)cc3)cc(=O)c2c(O)c1OC		inconclusive: 16.4 µM [cytotoxic, partial curve, poor fit]
C=CC[C@H](CC(=O)NCCO)C(=O)NCCOC(=O)[C@@H](CC=C)Cc1ccc(F)cc1		inconclusive: 29.1 µM [rising, partial curve, poor fit]
CN(C)S(=O)(=O)c1cccc(NC(=S)N/N=C/c2ccco2)c1	inactive: 2.09%	

Compounds shown so far with a CF3 group, in the order listed:
SMILES	activity change, negative = cytotoxicity	Potency
Cc1cccc(C(=O)NC2(C(F)(F)F)N=C(c3ccccc3)N(Cc3ccccc3)C2=O)c1 (stereo unspecified)	inactive: -11.7%	
CCN1CCOC(=O)C1CC(=O)Nc1ccccc1C(F)(F)F (stereo unspecified)		inconclusive: 16.4 µM [rising, single point]
O=C(NNc1nc2ccccc2nc1C(F)(F)F)c1ccccc1		inconclusive: 20.6 µM [cytotoxic, single point]
Cc1cc(C(F)(F)F)nn1Cc1n[nH]c(=S)n1-c1ccc(Cl)cc1		inconclusive: 18.4 µM [cytotoxic, single point]
